Assay results published in patent US9745335B2 (Blirt S.A., priority 2012, dated 2017).

Test system: Human erythrocytes
Test: hemotoxicity determination (hemolytic activity)
Assay type: cell-based
Conditions: for WS EH50/IC50 (selectivity coefficient): EH50 divided by antifungal IC50; for WE WS(z)/WS(AmB) (effectivity factor): selectivity coefficient of derivative relative to native antibiotic
Protocol: The hemotoxicity determination was carried out by the serial dilutions method, according to the procedure described earlier (Slisz, M., et al., E., J Antibiot 57: 669-678 (2004). Human erythrocytes were suspended in the solution of saline to obtain a cell density of suspension 2×10^7/ml. Suitable amounts of diluted solutions of compounds were added to the cell suspension in tubes and were incubated at 37° C. for 30 minutes and then centrifuged (1700×g, 10 min, 4° C.). The concentration of hemoglobin in supernatant after centrifugation of erythrocytes suspension were determined by measuring the absorbance at wavelength λ=540 nm (A540). The maximum level of hemolysis was obtained after incubation of cells suspension in the presence of 0.1% Tritone X-100 (control sample). […] From these graphs, the EH50 values were read which are the interpolated concentrations of compound, for which the A540 value is exactly 50% of the A540 value measured for the control sample.

Structure (SMILES) | WS EH50/IC50 (selectivity coefficient) | WE WS(z)/WS(AmB) (effectivity factor)
C[C@@H]1[C@H](O)[C@@H](C)/C=C/C=C/C=C/C=C/C=C/C=C/C=C/[C@H](O[C@@H]2O[C@H](C)[C@@H](O)[C@H](NC(=S)NCCN3CCCCC3)[C@@H]2O)C[C@@H]2O[C@](O)(C[C@@H](O)C[C@@H](O)[C@H](O)CC[C@@H](O)C[C@@H](O)CC(=O)O[C@H]1C)C[C@H](O)[C@H]2C(=O)O [Compound A22, N-{[3-(2-piperidin-1-yl)ethyl]thioureidyl}amphotericin B] | >140.84 | >7.93
C[C@@H]1[C@H](O)[C@@H](C)/C=C/C=C/C=C/C=C/C=C/C=C/C=C/[C@H](O[C@@H]2O[C@H](C)[C@@H](O)[C@H](NC(=O)[C@@H](N)Cc3ccccc3)[C@@H]2O)C[C@@H]2O[C@](O)(C[C@@H](O)C[C@@H](O)[C@H](O)CC[C@@H](O)C[C@@H](O)CC(=O)O[C@H]1C)C[C@H](O)[C@H]2C(=O)O [Compound A30, N-L-phenylalanylamphotericin B] | >111.11 | >6.26
C[C@@H]1[C@H](O)[C@@H](C)/C=C/C=C/C=C/C=C/C=C/C=C/C=C/[C@H](O[C@@H]2O[C@H](C)[C@@H](O)[C@H](NC(=O)[C@H](N)Cc3cccnc3)[C@@H]2O)C[C@@H]2O[C@](O)(C[C@@H](O)C[C@@H](O)[C@H](O)CC[C@@H](O)C[C@@H](O)CC(=O)O[C@H]1C)C[C@H](O)[C@H]2C(=O)O [Compound A36, N-D-β-(pyridin-3-yl)alanylamphotericin B] |  | >10.62
C[C@@H]1[C@H](O)[C@@H](C)/C=C/C=C/C=C/C=C/C=C/C=C/C=C/[C@H](O[C@@H]2O[C@H](C)[C@@H](O)[C@H](NC(=O)[C@@H](N)Cc3ccc([N+](=O)[O-])cc3)[C@@H]2O)C[C@@H]2O[C@](O)(C[C@@H](O)C[C@@H](O)[C@H](O)CC[C@@H](O)C[C@@H](O)CC(=O)O[C@H]1C)C[C@H](O)[C@H]2C(=O)O [Compound A33, N-L-p-nitrophenylalanylamphotericin B] | >71.94 | >4.05
C[C@@H]1[C@H](O)[C@@H](C)/C=C/C=C/C=C/C=C/C=C/C=C/C=C/[C@H](O[C@@H]2O[C@H](C)[C@@H](O)[C@H](NC(=O)[C@H](N)c3ccccc3)[C@@H]2O)C[C@@H]2O[C@](O)(C[C@@H](O)C[C@@H](O)[C@H](O)CC[C@@H](O)C[C@@H](O)CC(=O)O[C@H]1C)C[C@H](O)[C@H]2C(=O)O [Compound A41, N-D-phenylglycylamphotericin B] | >68.49 | >3.86
C[C@@H]1[C@H](O)[C@@H](C)/C=C/C=C/C=C/C=C/C=C/C=C/C=C/[C@H](O[C@@H]2O[C@H](C)[C@@H](O)[C@H](NC(=O)[C@H](N)COC(C)(C)C)[C@@H]2O)C[C@@H]2O[C@](O)(C[C@@H](O)C[C@@H](O)[C@H](O)CC[C@@H](O)C[C@@H](O)CC(=O)O[C@H]1C)C[C@H](O)[C@H]2C(=O)O [Compound A40, N-D-(O-tert-butyl)serylamphotericin B] | >148.15 | >8.34
C[C@@H]1[C@H](O)[C@@H](C)/C=C/C=C/C=C/C=C/C=C/C=C/C=C/[C@H](O[C@@H]2O[C@H](C)[C@@H](O)[C@H](NCc3ccc(-c4ccccc4)cc3)[C@@H]2O)C[C@@H]2O[C@](O)(C[C@@H](O)C[C@@H](O)[C@H](O)CC[C@@H](O)C[C@@H](O)CC(=O)O[C@H]1C)C[C@H](O)[C@H]2C(=O)O [Compound A20, N-[(4-biphenyl)methyl]amphotericin B] | >61.35 | >3.45
